Reference: PubChem BioAssay AID602196 (INSERM, 2012)

Aim: 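Genes whose knock-down alters cisplatin killing of lung cancer cells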
Cells: human A549 lung cancer cells
Reagent: siRNA pair against human genes
Duration: 48 h transfection before cisplatin; time from cisplatin to read-out not stated
Treatment: cisplatin at a dose killing half of control-siRNA cells; exact dose and duration not given
Measured: 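Cisplatin cell death as a shift from the 50% death seen with control siRNA; siRNAs toxic or growth-blocking alone scored 0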
Scale: two-siRNA summed score (-2 to +2): higher = both siRNAs protect from cisplatin killing; -2 means both sensitise; mean protection from cisplatin (shift in death): higher = protection from cisplatin killing
Active means: 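siRNAs harmful alone (LDH or WST-1) get 0; others get +1 for less and -1 for more cisplatin killing; genes are active when the two siRNAs give the same sign, summing to ±2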
Meaning of the calls: active = both siRNAs shift cisplatin killing the same way; inactive = no consistent shift, or siRNA harmful alone
This is an unselected part of about 23,000 deposited reagents. 455 of them (2%) were called active. 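Active includes both protection and sensitisation; some change values fall well beyond the stated -50 to +50 range.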 A number with no mark means an inactive call. Not all columns of the deposit are shown. The record does not give: the amount of reagent.

After knock-down of ZNF25, the screen gave two-siRNA summed score (-2 to +2) = 0; mean protection from cisplatin (shift in death) (%) = 6.9.
CCL2 scored two-siRNA summed score (-2 to +2) = 0; mean protection from cisplatin (shift in death) (%) = 0.2.
IFNW1 scored two-siRNA summed score (-2 to +2) = 0; mean protection from cisplatin (shift in death) (%) = -0.9.
Against CCDC172, the entry reads two-siRNA summed score (-2 to +2) = 0; mean protection from cisplatin (shift in death) (%) = 11.6.
Silencing of LOC283804 resulted in: two-siRNA summed score (-2 to +2) = 0; mean protection from cisplatin (shift in death) (%) = 7.2.

Quoted from the listing, 2 entries:
IFNW1 → two-siRNA summed score (-2 to +2) = 0; mean protection from cisplatin (shift in death) (%) = -0.9
CCDC172 → two-siRNA summed score (-2 to +2) = 0; mean protection from cisplatin (shift in death) (%) = 11.6

Continued.
Against SEPSECS, the entry reads two-siRNA summed score (-2 to +2) = 0; mean protection from cisplatin (shift in death) (%) = 5.
With knock-down of BAX, the record shows two-siRNA summed score (-2 to +2) = 1; mean protection from cisplatin (shift in death) (%) = 1.8.
Silencing of SAXO5 resulted in: two-siRNA summed score (-2 to +2) = 1; mean protection from cisplatin (shift in death) (%) = 4.7.
Against RUFY2 the deposit lists two-siRNA summed score (-2 to +2) = 0; mean protection from cisplatin (shift in death) (%) = -8.9.
Silencing of KIAA1970 came out at: two-siRNA summed score (-2 to +2) = 0; mean protection from cisplatin (shift in death) (%) = 27.2.
With knock-down of LOC389405 (retired record), the screen gave two-siRNA summed score (-2 to +2) = 0; mean protection from cisplatin (shift in death) (%) = 13.4.
Silencing of DPM2 resulted in: two-siRNA summed score (-2 to +2) = 0; mean protection from cisplatin (shift in death) (%) = 2.7.
